# Reference: patent US20110091386A1 (GENE TECHNO SCIENCE, published 2011)
# Results are given in words; binding and its absence hold for the method and conditions named.
# B1: mouse anti-RGD monoclonal antibody 35B6 (FERM BP-10441) (antibody, mouse IgG1, V domains shown)
# VH: QVQLQQPGTELVKPGASVKLSCKASGYTFTNYWMHWVKQRPGQGLEWIGNINPRNGDSNYNEKFRSKASLTVDKSSSTVYMQLSSLTSEDSAVYYCARGYFDVWGTGTTVTVSS
# VL: DIKMTQSPSSMYASLGERVSITCKASQDINSYLSWFQQKSGKSPKTLIYRANRLVDGVPSRFSGSGSGQDFSLTISSLEYEDMGIYYCLQYDEFPFTFGSGTKLEIK
# notes: Mouse IgG1 from hybridoma
# Target: murine laminin (murine)
# Experiment: ELISA, protein coated at 5 ug/ml
binder,measurement,value
B1,binding,no binding
